Measured values: article PMC4510711
These are yes or no findings as the source states them, for the method shown. In cells and extracts the contact can be indirect. Some binding calls cover weakened binding; strength is not graded here. Tags and fused reporters may be left off the sequences shown. Values belong to the molecule of their own block, whether it stands above or below them.

The chains behind the UniProt entries cited, without tags or fusion partners.
UniProt A5YKK6: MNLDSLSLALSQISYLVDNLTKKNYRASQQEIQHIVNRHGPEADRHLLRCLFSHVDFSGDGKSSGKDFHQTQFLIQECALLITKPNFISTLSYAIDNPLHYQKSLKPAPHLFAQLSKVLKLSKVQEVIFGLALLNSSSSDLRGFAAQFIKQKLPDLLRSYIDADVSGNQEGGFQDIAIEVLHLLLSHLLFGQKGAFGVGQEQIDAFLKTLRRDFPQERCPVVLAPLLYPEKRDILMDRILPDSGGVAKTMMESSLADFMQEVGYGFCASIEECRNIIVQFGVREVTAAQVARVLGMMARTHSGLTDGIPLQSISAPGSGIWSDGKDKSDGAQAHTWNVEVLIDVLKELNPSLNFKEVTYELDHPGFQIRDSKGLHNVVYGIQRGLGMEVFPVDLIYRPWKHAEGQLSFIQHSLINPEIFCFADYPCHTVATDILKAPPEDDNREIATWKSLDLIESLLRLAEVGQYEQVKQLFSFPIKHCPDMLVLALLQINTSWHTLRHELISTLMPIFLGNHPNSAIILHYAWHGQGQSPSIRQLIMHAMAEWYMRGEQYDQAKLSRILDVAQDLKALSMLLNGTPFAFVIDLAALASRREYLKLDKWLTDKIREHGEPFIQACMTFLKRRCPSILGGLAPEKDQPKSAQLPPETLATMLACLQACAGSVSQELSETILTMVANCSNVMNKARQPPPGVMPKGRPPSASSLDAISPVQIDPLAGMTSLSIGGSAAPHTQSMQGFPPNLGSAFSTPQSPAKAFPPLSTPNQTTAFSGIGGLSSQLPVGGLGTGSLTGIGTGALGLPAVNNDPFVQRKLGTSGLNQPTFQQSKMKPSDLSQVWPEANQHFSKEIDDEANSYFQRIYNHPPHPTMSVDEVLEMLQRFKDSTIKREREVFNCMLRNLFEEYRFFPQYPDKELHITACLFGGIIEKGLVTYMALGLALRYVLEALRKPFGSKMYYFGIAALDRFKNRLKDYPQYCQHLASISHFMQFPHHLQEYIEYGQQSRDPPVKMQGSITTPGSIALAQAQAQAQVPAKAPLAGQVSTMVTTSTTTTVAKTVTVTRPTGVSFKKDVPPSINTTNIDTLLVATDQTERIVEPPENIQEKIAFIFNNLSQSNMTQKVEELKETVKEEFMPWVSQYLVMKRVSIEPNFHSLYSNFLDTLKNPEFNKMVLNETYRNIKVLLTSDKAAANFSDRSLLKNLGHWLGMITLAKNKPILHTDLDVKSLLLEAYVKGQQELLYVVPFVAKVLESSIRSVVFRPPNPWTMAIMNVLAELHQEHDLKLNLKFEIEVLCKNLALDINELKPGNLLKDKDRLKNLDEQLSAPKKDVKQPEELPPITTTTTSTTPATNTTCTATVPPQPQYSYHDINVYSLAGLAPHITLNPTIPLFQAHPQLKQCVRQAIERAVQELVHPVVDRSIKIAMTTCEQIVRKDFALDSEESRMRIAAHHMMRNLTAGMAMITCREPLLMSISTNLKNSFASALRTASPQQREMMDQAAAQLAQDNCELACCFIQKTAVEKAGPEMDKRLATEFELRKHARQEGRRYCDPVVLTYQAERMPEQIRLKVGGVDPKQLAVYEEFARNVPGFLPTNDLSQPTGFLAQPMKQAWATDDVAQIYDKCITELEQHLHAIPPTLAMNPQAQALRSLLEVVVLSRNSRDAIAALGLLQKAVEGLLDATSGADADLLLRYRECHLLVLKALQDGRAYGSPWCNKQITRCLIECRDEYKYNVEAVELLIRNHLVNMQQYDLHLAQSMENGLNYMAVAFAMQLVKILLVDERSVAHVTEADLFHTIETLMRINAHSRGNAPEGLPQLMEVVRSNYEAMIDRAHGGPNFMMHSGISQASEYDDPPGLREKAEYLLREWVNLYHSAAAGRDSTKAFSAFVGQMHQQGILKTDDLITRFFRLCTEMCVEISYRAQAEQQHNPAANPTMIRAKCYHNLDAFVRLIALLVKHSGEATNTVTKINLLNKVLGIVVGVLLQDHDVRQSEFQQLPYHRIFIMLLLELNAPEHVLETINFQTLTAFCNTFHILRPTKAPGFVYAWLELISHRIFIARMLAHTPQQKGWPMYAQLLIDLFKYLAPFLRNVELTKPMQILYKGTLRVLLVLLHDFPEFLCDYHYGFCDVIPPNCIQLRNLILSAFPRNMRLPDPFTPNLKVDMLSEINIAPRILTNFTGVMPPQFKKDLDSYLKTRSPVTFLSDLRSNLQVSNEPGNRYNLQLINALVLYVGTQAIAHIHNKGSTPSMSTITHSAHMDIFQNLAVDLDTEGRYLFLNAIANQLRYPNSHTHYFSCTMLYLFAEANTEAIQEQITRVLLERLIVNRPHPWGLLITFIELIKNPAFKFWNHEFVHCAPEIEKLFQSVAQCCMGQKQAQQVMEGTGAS
UniProt Q9UFF9: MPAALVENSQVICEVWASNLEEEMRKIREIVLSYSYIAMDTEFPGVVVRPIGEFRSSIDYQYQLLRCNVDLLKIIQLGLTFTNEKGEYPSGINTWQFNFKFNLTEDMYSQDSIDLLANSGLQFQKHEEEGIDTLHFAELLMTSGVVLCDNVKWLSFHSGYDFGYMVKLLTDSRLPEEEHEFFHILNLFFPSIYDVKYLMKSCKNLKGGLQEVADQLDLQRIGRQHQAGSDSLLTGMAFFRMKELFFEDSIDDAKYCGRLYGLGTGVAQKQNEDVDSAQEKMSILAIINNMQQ

Target: T1, myc-RC3H1 (human) (UniProt Q5TC82)
T1 sequence: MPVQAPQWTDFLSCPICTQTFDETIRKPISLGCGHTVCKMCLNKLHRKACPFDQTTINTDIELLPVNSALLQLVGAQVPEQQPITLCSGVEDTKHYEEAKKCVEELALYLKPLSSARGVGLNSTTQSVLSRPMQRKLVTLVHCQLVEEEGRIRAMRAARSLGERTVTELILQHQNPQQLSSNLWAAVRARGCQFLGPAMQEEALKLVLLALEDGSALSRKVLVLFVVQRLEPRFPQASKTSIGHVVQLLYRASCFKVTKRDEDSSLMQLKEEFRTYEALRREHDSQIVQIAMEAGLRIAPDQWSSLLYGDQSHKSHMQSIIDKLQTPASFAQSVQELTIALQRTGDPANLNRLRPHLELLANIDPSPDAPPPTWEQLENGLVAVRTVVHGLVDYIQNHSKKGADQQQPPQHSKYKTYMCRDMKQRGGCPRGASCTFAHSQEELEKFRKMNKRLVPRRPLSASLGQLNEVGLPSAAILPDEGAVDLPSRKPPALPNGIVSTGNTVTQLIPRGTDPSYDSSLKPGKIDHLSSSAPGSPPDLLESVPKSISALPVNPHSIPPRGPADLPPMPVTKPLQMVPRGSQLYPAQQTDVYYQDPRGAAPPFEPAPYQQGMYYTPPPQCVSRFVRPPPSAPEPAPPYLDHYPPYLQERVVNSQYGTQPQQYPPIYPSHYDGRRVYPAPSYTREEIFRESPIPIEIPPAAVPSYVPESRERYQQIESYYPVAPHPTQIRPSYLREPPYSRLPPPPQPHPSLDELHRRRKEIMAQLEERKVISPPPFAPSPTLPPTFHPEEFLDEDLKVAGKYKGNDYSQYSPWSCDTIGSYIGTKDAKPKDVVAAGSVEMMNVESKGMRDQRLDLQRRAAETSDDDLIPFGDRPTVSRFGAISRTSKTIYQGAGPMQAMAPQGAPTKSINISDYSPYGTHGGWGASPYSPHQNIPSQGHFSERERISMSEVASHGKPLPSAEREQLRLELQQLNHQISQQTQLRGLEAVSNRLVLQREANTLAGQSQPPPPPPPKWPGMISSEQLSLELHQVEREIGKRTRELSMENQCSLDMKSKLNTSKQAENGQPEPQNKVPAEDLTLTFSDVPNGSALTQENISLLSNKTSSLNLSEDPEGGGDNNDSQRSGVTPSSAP
Experiment: co-IP; co-transfection of myc-RC3H1 with HA-CNOT1, HA-CNOT8 or HA-QKI; IP with anti-myc antibody; blots probed with anti-myc and anti-HA

- binding: binds
Molecule: HA-CNOT1 (from UniProt A5YKK6 1-2376)

- binding: binds
Molecule: HA-CNOT8 (from UniProt Q9UFF9 1-292)

- binding: no binding
B1: HA-QUAKING (QKI) (protein, UniProt Q96PU8-1 1-341)
chain: MVGEMETKEKPKPTPDYLMQLMNDKKLMSSLPNFCGIFNHLERLLDEEISRVRKDMYNDTLNGSTEKRSAELPDAVGPIVQLQEKLYVPVKEYPDFNFVGRILGPRGLTAKQLEAETGCKIMVRGKGSMRDKKKEEQNRGKPNWEHLNEDLHVLITVEDAQNRAEIKLKRAVEEVKKLLVPAAEGEDSLKKMQLMELAILNGTYRDANIKSPALAFSLAATAQAAPRIITGPAPVLPPAALRTPTPAGPTIMPLIRQIQTAVMPNGTPHPTAAIVPPGPEAGLIYTPYEYPYTLAPATSILEYPIEPSGVLGAVATKVRRHDMRVHPYQRIVTADRAATGN
